{"source": "PubChem BioAssay AID1259283 (Sanger Institute, 2017)", "purpose": "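Kinome-wide siRNA search for kinases acting with BYL719, cetuximab or trametinib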 (primary screen)", "cell system": "HT115 colorectal cancer cells", "knock-down reagent": "siRNA pool against human genes", "conditions": "anchor drug given one day after siRNA: BYL719 at 1 µM, cetuximab at 5 µg/ml, trametinib at 10 nM, or DMSO vehicle alone", "detection": "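Per-drug synergy scores plus replicate-mean viability relative to non-targeting pool #2 wells, also expressed as a robust z-score based on control wells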", "reading the numbers": "robust z-score, knock-down alone: higher = more viable cells after knock-down; viability, DMSO vs non-targeting control: higher = more viable cells", "units": "viability, DMSO vs non-targeting control in fraction of control", "rule for the call": "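Essential gene: robust z-score less than -3 with no drug added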", "meaning of the calls": "active = essential (z below -3, no drug); inactive = no change without drug", "note": "Here is one part, drawn at random, of 794 reagents tested. Over the whole deposit, 14 (1.8%) were called active. 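Calls reflect only viability loss without drug; drug synergy does not enter the call.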 Entries without a mark were called inactive. No viability above 1 is reported: the scale is capped. Further read-outs or replicates are left out here. The record does not give: the amount of reagent, the time to read-out."}
The opening 2 records as a preview:
{"gene symbol": "MINK1", "robust z-score, knock-down alone": 0.304, "viability, DMSO vs non-targeting control": 0.955}
{"gene symbol": "EIF2AK3", "robust z-score, knock-down alone": 0.453, "viability, DMSO vs non-targeting control": 0.969}

Results, from the first entry:
{"gene symbol": "MINK1", "robust z-score, knock-down alone": 0.304, "viability, DMSO vs non-targeting control": 0.955}
{"gene symbol": "EIF2AK3", "robust z-score, knock-down alone": 0.453, "viability, DMSO vs non-targeting control": 0.969}
{"gene symbol": "EPHA8", "robust z-score, knock-down alone": 0.789, "viability, DMSO vs non-targeting control": 1}
{"gene symbol": "GK", "robust z-score, knock-down alone": 0.789, "viability, DMSO vs non-targeting control": 1}
{"gene symbol": "PKM", "robust z-score, knock-down alone": 0.111, "viability, DMSO vs non-targeting control": 0.937}
{"gene symbol": "ADCK1", "robust z-score, knock-down alone": 0.634, "viability, DMSO vs non-targeting control": 0.986}
{"gene symbol": "TNK1", "robust z-score, knock-down alone": 0.436, "viability, DMSO vs non-targeting control": 0.967}
{"gene symbol": "ACVR2B", "robust z-score, knock-down alone": -0.167, "viability, DMSO vs non-targeting control": 0.912}
{"gene symbol": "LMTK3", "robust z-score, knock-down alone": -0.151, "viability, DMSO vs non-targeting control": 0.913}
{"gene symbol": "PIP5K1A", "robust z-score, knock-down alone": 0.202, "viability, DMSO vs non-targeting control": 0.946}
{"gene symbol": "CDKL1", "robust z-score, knock-down alone": 0.789, "viability, DMSO vs non-targeting control": 1}
{"gene symbol": "COASY", "robust z-score, knock-down alone": -2.06, "viability, DMSO vs non-targeting control": 0.736}
